Source: patent publication US20260001933A1
Results are given in words; binding and its absence hold for the method and conditions named. Some binding calls cover weakened binding; strength is not graded here. Tags and fused reporters may be left off the sequences shown.

How the values were obtained:
[1] = target: Protein A (Sensor Chip Protein A, Cytiva) (UniProt P38507); assay: SPR, Biacore 8K, Sensor Chip Protein A, single cycle kinetics
[2] = target: Protein A (Sensor Chip Protein A, Cytiva) (UniProt P38507); assay: SPR, Biacore 8K, Sensor Chip Protein A (figure legend)
[3] = target: Protein A (Sensor Chip Protein A, Cytiva) (UniProt P38507); assay: SPR sensorgram (Biacore 8K), Sensor Chip Protein A

Measured: binding

B1: PetML119 (canine p75NTR ECD-canine IgGB wt Fc protein fusion) (Fc fusion)
chain: KEACPTGLYTHSGECCKACNLGEGVAQPCGANQTVCEPCLDSVTFSDVVSATEPCKPCTECVGLQSMSAPCVEADDAVCRCAYGYYQDETTGRCEACRVCEAGSGLVFSCQDRQNTVCEECPDGTYSDEANHVDPCLPCTVCEDTERQLRECTRWADAECEEIPGGGGRENGRVPRPPDCPKCPAPEMLGGPSVFIFPPKPKDTLLIARTPEVTCVVVDLDPEDPEVQISWFVDGKQMQTAKTQPREEQFNGTYRVVSVLPIGHQDWLKGKQFTCKVNNKALPSPIERTISKARGQAHQPSVYVLPPSREELSKNTVSLTCLIKDFFPPDIDVEWQSNGQQEPESKYRTTPPQLDEDGSYFLYSKLSVDKSRWQRGDTFICAVMHEALHNHYTQKSLSHSPGK
binds: all assays above

B2: PetML122 (canine p75NTR ECD-canine Fc YTE protein fusion) (Fc fusion)
chain: KEACPTGLYTHSGECCKACNLGEGVAQPCGANQTVCEPCLDSVTFSDVVSATEPCKPCTECVGLQSMSAPCVEADDAVCRCAYGYYQDETTGRCEACRVCEAGSGLVFSCQDRQNTVCEECPDGTYSDEANHVDPCLPCTVCEDTERQLRECTRWADAECEEIPGGGGRENGRVPRPPDCPKCPAPEMLGGPSVFIFPPKPKDTLYITREPEVTCVVVDLDPEDPEVQISWFVDGKQMQTAKTQPREEQFNGTYRVVSVLPIGHQDWLKGKQFTCKVNNKALPSPIERTISKARGQAHQPSVYVLPPSREELSKNTVSLTCLIKDFFPPDIDVEWQSNGQQEPESKYRTTPPQLDEDGSYFLYSKLSVDKSRWQRGDTFICAVMHEALHNHYTQKSLSHSPGK
binds: all assays above
